Data taken from PubChem BioAssay AID1347423 (Functional Genomics Laboratory (NCATS/FGL), 2020).
Screen size: about 52,000 sequences; about 210 (0.4%) were called active.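 Rule for the calls: active = gene whose silencing raises cell survival under the drug, median off-target-corrected z-score across its silencing RNAs 2 or more; inactive = the rest.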 The list shows a part of the results.

assay: Resistance to Poly (ADP-Ribose) Polymerase inhibitor: Gene Identification via Genome-wide siRNA Screen; conditions: mouse BRCA2 R2336H ES cells, olaparib, CellTiter-Glo viability; active compounds read high
How it was run: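 Mouse BRCA2 R2336H ES cells were reverse-transfected with siRNA (20 nM final), treated at 48 h with 500 nM olaparib, and read by CellTiter-Glo after 72 h. Scores: MAD-based z per siRNA, median per gene, seed off-target correction.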

Row | Sequence | z-score
1 | GGAUGGAUUGCUGGUUACATT against E030013G06Rik | inactive: -1.41
2 | GGGAAGUGGGAUUCCUAAGTT against 2810453I06Rik | inactive: 0.185
3 | GGAGCUGAUCUUUUCAGUGTT against Slc35b3 | inactive: -0.679
4 | GGGCAACAUUUUGGAUUAUTT against Naglu | inactive: 0.767
5 | GGUGUGCUCUGUAAAUCAUTT against Trappc2 | inactive: 0.553
6 | GGCUUUUGAGAAUUCAUUCTT against Kcna5 | inactive: -0.525
7 | GGCUUUAACAUCAAAGCAATT against 4930583H14Rik | inactive: 0.749
8 | CCUUUCUAACUACUCUCACTT against Olfr149 | inactive: -0.919
9 | GGUGGUGUCAAAAUGAAGCTT against 3-Sep | inactive: -0.0105
10 | GCCCUCAUCAGAAGAAACUTT against 4930503B16Rik | inactive: -1.41
11 | GCUAGUCAUGCUACGGAAUTT against 9130023F12Rik | inactive: -1.82
12 | GCCCAUCAACCUAAUUUCATT against Tarbp2 | inactive: -1.42
13 | GCUUGACCUUUUUACUCCUTT against Siglecl1 | inactive: 2.08
14 | GGCUCGAAAGCGGUUCUUATT against Amfr | inactive: -2.1
15 | GGAACACCAUGAAGAAGACTT against Gabarap | inactive: 0.172
16 | GGAUCCACAAGCGACUCAUTT against Rps20 | inactive: -3.28
17 | CCCAACUUAAAAGUACGUUTT against Hdac5 | inactive: 0.071
18 | GGUGGAAUAAUGGACAAGATT against Blnk | inactive: -1.93
19 | GCGAGCUAUUCUUCCUUGUTT against Eif4a1 | inactive: -1.37
20 | GGAAGAUGUGAUUUAUGACTT against 2810441C07Rik | inactive: 0.0636
21 | GGAUAAGAAGCGAUUUGAATT against Rcn2 | inactive: -0.793
22 | GGAACUCUCCUUGCAUCAGTT against Lrrc6 | inactive: 1.15
23 | GCGUGGACAAACUCUAUGATT against A930008A22Rik | inactive: -0.102
24 | GGACCGCCUUCAACAACAATT against Gtrgeo22 | inactive: 0.623
25 | GCCACCACCAUAAAUAUAUTT against Thsd2 | inactive: 0.0662
26 | GCCUUUACACUAAUGAUAATT against Cilp | inactive: 0.581

Row | Sequence | z-score
27 | GCUGAACAAUCGCUCAGUATT against 5830445C04Rik | inactive: -1.26
28 | GCUGAAGGCGACAAUGGAUTT against Ak2 | inactive: -0.828
29 | GCUCUCUCCAUAUUAGUGGTT against Nkg7 | inactive: -0.62
30 | GGACCAUUCAUUUCUGGAGTT against Riok3 | inactive: 1.36
31 | GCAAUAGGUUUAAAGACAUTT against Tgm5 | inactive: 0.977
32 | CCGACGAUGGCACAUUACATT against Ranbp3 | inactive: -2.19
33 | GCCAAGAGCGAAAUGAGUGTT against Mcf2l | inactive: 0.218
34 | GGCUCAUCUGUCUAAAAUUTT against Spag1 | inactive: -1.18
35 | GGAAGGAAACUGAUUGAGGTT against Slc30a7 | inactive: 3.62
36 | GGAAGAGAAUAACUCAUCATT against Atp5s | inactive: -0.00542
37 | GGGAUCAAUGGCUACCUGUTT against Slc7a10 | inactive: 0.058
38 | CAUGGAGGUCCUCAGAGACTT against Prb1 | inactive: -1.32
39 | CCUCCUAUCGGCGAAGAAATT against Olfr282 | inactive: -1.23
40 | GGGAAAUUUGGUGGCUACATT against Col14a1 | inactive: -1.84
41 | GGUCAAUGAAGAUGAACUGTT against Fxyd2 | inactive: 0.287
42 | GGUUGUCUGGAAUUUCCAUTT against Immp2l | inactive: -0.946
43 | CCAUCCCAUUAUUAUGUCCTT against Eif2c1 | inactive: -0.685
44 | CCCACGGAAAACAAUAUUUTT against Cpeb4 | inactive: 0.195
45 | GCCUAUAAGAACUUUUUCATT against Tnc | inactive: 1.02
46 | CCCUAAGCUGAAACGAAAUTT against Tas2r119 | inactive: -0.0402
47 | GGAAAGUCCUGGGAAAUACTT against Olfr697 | inactive: 0.411
48 | GAGAAUCCCUUCGAGUACGTT against Fxyd2 | inactive: 0.437
49 | GCAGAUGUACUCUAAGGGUTT against Adam23 | inactive: 2.5
50 | GGUUUUAGCCACAAGUAUGTT against Wdr50 | inactive: 0.213
51 | GGGCAUCCUCUUCAAAGAUTT against 4930449E07Rik | inactive: 0.146
52 | GGCAGUAACUGUAAGCCUGTT against BC029214 | inactive: -2.1

Random excerpt: seven entries already listed
Row | Sequence | z-score
18 | GGUGGAAUAAUGGACAAGATT against Blnk | inactive: -1.93
24 | GGACCGCCUUCAACAACAATT against Gtrgeo22 | inactive: 0.623
7 | GGCUUUAACAUCAAAGCAATT against 4930583H14Rik | inactive: 0.749
14 | GGCUCGAAAGCGGUUCUUATT against Amfr | inactive: -2.1
50 | GGUUUUAGCCACAAGUAUGTT against Wdr50 | inactive: 0.213
17 | CCCAACUUAAAAGUACGUUTT against Hdac5 | inactive: 0.071
12 | GCCCAUCAACCUAAUUUCATT against Tarbp2 | inactive: -1.42

Following part.

Row | Sequence | z-score
53 | UAGUGUCACCUACAGAGAATT against Sr278 | inactive: -0.819
54 | CCACAAGGAACAAUGAUCCTT against Kirrel3 | inactive: -0.526
55 | GGGCACACUAAUCAAUGAATT against Lilrb4 | inactive: 1.55
56 | GGGAAAUUCUGUCUAUUUUTT against Bmp5 | inactive: 0.432
57 | GGAAAACACAGCUACGGAATT against Ak5 | inactive: 0.523
58 | CCAGUACGGCCCUAUGAAUTT against Zic2 | inactive: -0.39
59 | CCAACGAAUUCUUGUUACUTT against Kcnc3 | inactive: 0.222
60 | CCUUAUUUUGACCGUCCAATT against Ylpm1 | inactive: 0.557
61 | GGCUGCUGCUCAGUCUUUATT against Pou2f1 | inactive: -2.13
62 | CCCACAAAAUACCAAAUCCTT against Klk27 | inactive: -1.34
63 | GGUCCAGAUACAGAACUGUTT against 2610103M17Rik | inactive: -2.5
64 | GCAAAGUGAAUAAGUUCUGTT against 9030227G01Rik | inactive: -0.149
65 | CUUAAAGUGAGAUGGUUUCTT against Hist2h2be | inactive: 0.112
66 | CGGCAACUAUCCAUUGAAATT against Cyp2c50 | inactive: 0.0668
67 | GGUUACAUGCCCUACCUCATT against Def6 | inactive: -2.32
68 | GGCAACAUGCGGACAACAUTT against Trim14 | inactive: 0.721
69 | GCUUAGAUCACCUAAUGACTT against Adprtl3 | inactive: 1.6
70 | GGGUCCAGAAAUCAUGUUATT against Slc35a5 | inactive: -0.121
71 | GGCGGAUCUCUUGAGUGUUTT against 6230410P16Rik | inactive: 1.02
72 | GGCUUUCUUUUUGAAAGAATT against Arhgap10 | inactive: 0.957
73 | CCCACUAAGGAGAUCAGUUTT against Lasp1 | inactive: -0.24
74 | GCCGUUGCCUUUCAAGGGATT against Inhbe | inactive: 0.667
75 | GCACGCUCUUCAUUCGACATT against 1700067C01Rik | inactive: -0.00411
76 | CGACUUCAAAUCUGGGCCATT against Psmd14 | inactive: -2.03
77 | CCUAUACAAGGGAGGUGAATT against Il1f10 | inactive: -0.817
78 | GCAUUGACAUCGAUCAGAUTT against Irx1 | inactive: 0.398

Row | Sequence | z-score
79 | GGAUAACCUCCUUACCGUCTT against 2010003J03Rik | inactive: 1.94
80 | GGCACAGGGACCAUUGUUGTT against Hsd17b1 | active: 2.34
81 | GGAGUUGGUUCUGUGUUAUTT against Tcf7l2 | inactive: 0.998
82 | GCCUAAUUAUGAUAGCAGUTT against Olfr639 | inactive: 0.582
83 | CGCUGUUUGAAUUUGUAUUTT against AI429152 | inactive: -1.02
84 | GGCGUGAUCGCUCUCCAAUTT against Ncoa5 | inactive: -0.505
85 | GCCAGUGUUCAACUCAUGCTT against 1190005F20Rik | inactive: -1.01
86 | GGUAACAAUCCCAGAAUCCTT against Mpa2 | inactive: -0.205
87 | GCUGAUCUUUUUCAACAUGTT against Tas2r102 | inactive: 1.15
88 | GGCAUACAAAGCCCUCUAUTT against Kcnrg | inactive: -1.11
89 | GGUUGUGCAUUGUUUAUUGTT against Ppfibp1 | inactive: 1.93
90 | AACAACUGAGCAAAUCCACTT against Thoc4 | inactive: -1.53
91 | CCUCAUCUACAAGUGUGGUTT against Eef1a2 | inactive: -0.386
92 | GGAUCAUUUACAUUCAUACTT against Alg12 | inactive: -1.37
93 | GCCCACGUAUUUGUCUGCUTT against Sprn | inactive: -1.58
94 | GGUUCUAGACAAUUACCUGTT against Clic1 | inactive: -0.399
95 | GGUUCAAGCCAUCUUCAAATT against Olfr1325 | inactive: 1.21
96 | GGCCUACCCAAUUCUUAACTT against Ces1 | inactive: -0.547
97 | GCGCAAUAUAGAGUCAUCATT against 6530404N21Rik | inactive: -0.0242
98 | AGGUUUUUAGCCUGAGUGATT against Olfr688 | inactive: 0.641
99 | GGAAUAAGUAGUGAUAGAGTT against Il5ra | inactive: 0.846
100 | GCAAAGUAUAGCUAUGUGCTT against LOC209380 | inactive: -0.041
101 | GGAGCGACAACUGUGAUAUTT against Liph | inactive: -0.293
102 | GGCCUGUCUGAGCUUAACATT against Cklfsf3 | inactive: -0.723
103 | CCAAGAGGAUUUUCUCUUUTT against Krtap6-1 | inactive: 0.46
104 | CGGUUAACUGGAAAGUGCGTT against Gm644 | inactive: 0.553

Some of the entries above, set out differently:
GGACCGCCUUCAACAACAATT against Gtrgeo22
  z-score: inactive: 0.623
GCCACCACCAUAAAUAUAUTT against Thsd2
  z-score: inactive: 0.0662
